Source: paper PMC11858170
Results are given in words; binding and its absence hold for the method and conditions named. Binding seen in cells or lysates may run through a third protein. Some entries that bind do so weakly or less than the wild type.

Chains of the proteins cited; added tags and fusions are not shown.
UniProt P52332: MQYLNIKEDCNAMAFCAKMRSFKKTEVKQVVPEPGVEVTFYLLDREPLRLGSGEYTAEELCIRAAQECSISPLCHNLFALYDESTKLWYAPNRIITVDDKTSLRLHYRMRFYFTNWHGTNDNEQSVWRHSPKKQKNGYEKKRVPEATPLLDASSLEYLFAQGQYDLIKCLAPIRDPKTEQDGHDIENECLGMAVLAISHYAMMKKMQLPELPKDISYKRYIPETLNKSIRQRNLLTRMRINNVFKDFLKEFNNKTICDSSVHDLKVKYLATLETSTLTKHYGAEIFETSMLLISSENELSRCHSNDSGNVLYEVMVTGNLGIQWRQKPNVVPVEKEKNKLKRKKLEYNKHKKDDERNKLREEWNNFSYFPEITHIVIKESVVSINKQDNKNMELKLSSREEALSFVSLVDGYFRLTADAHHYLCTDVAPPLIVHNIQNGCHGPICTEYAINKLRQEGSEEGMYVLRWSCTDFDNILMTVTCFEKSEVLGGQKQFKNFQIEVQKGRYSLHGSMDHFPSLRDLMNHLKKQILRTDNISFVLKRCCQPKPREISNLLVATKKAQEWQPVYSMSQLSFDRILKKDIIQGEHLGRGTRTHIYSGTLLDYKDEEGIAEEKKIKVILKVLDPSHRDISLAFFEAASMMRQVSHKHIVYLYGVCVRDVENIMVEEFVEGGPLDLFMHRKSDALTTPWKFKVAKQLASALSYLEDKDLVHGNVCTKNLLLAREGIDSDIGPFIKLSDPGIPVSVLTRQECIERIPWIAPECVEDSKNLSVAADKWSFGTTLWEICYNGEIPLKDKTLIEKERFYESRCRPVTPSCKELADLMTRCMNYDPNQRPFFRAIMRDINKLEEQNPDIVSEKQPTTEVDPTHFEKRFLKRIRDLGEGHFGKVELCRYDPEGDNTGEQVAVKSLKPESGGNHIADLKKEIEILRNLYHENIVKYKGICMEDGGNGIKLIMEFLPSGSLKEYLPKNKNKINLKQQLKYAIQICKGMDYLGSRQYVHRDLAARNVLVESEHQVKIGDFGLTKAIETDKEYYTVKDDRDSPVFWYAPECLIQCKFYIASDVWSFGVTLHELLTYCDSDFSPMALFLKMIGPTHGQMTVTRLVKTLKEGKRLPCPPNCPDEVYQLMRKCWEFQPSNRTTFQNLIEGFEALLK
UniProt P25911: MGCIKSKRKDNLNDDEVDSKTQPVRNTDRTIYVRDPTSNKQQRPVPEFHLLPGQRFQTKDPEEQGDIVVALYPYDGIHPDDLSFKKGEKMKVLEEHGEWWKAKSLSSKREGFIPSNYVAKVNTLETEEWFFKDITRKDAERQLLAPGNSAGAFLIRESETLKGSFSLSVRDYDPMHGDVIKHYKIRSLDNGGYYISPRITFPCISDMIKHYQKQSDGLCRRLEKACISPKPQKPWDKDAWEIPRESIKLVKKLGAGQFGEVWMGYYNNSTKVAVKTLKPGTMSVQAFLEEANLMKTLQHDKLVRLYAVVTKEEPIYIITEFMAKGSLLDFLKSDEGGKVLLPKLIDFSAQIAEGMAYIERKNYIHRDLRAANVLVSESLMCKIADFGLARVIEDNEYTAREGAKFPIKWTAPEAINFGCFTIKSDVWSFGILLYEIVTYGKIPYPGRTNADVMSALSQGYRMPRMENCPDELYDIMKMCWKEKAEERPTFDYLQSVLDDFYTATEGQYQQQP

Columns and labels:
[1] = molecular target: T1, interleukin-4 receptor (IL-4 receptor α), mouse (mouse (endogenous in BALB/C tissue)) (UniProt P16382); test: co-IP; ear tissue lysates (RIPA buffer) of BALB/C mice in passive cutaneous anaphylaxis (DNP-specific IgE, DNP-HSA), without or with Roc-A or chemical 1536801; immunoprecipitation and immunoblot; which protein was precipitated is not told
T1 sequence: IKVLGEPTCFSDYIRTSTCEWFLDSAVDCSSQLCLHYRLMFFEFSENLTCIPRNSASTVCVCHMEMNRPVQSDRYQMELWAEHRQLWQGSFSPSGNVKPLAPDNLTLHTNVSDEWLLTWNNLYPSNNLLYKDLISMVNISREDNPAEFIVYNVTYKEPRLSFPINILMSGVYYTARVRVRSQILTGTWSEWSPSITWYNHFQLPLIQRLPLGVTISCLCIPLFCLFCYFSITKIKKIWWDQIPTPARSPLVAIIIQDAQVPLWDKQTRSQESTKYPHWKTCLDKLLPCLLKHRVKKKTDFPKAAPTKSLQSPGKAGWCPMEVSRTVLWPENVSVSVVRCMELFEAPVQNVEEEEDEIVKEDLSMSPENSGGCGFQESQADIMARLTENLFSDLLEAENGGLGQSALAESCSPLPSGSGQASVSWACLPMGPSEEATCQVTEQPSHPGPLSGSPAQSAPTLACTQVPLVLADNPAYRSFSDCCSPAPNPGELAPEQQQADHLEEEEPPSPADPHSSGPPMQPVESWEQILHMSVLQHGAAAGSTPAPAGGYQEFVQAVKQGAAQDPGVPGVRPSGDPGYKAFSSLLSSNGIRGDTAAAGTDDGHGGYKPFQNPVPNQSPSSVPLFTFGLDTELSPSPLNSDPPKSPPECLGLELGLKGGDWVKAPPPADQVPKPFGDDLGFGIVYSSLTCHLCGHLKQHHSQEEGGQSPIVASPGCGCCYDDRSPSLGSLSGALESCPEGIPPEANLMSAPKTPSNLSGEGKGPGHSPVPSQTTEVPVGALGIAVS

[2] = molecular target: T2, FcεRI (detected with an antibody to FcεRIβ), mouse (mouse (endogenous in BALB/C tissue)) (UniProt P20490); test: co-IP; lung tissue lysates (RIPA buffer) of BALB/C mice in passive systemic anaphylaxis (DNP-specific IgE, DNP-HSA), without or with Roc-A; immunoprecipitation and immunoblot; which protein was precipitated is not told
T2 sequence: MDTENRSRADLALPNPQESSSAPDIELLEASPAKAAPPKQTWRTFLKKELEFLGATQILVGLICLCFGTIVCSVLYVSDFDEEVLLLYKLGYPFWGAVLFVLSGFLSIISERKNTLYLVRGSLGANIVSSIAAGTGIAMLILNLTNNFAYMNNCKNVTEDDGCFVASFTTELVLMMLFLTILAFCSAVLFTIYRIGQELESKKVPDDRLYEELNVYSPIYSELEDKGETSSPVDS

[3] = molecular target: T2, FcεRI (detected with an antibody to FcεRIβ), mouse (mouse (endogenous in BALB/C tissue)); test: co-IP; ear tissue lysates (RIPA buffer) of BALB/C mice in passive cutaneous anaphylaxis (DNP-specific IgE, DNP-HSA), without or with Roc-A or chemical 1536801; immunoprecipitation and immunoblot; which protein was precipitated is not told

With “Janus kinase 1 (JAK1), mouse (from UniProt P52332 1-1153) (enzyme)” the binding [1] was “binds”.

“LYN, mouse (from UniProt P25911 1-512) (enzyme)” was tested, and the binding [2] was “binds” and the binding [3] was “binds”.
